# According to the supplement of paper PMC12823440, “Inhibitors supercharge kinase turnover through native proteolytic circuits” (Nature, 2025):
# By UniProt entry, the sequences of proteins in these tests, tags left out. Where a name states a change or a piece, a line headed by the entry shows the natural chain unless it says otherwise.
# UniProt Q15208: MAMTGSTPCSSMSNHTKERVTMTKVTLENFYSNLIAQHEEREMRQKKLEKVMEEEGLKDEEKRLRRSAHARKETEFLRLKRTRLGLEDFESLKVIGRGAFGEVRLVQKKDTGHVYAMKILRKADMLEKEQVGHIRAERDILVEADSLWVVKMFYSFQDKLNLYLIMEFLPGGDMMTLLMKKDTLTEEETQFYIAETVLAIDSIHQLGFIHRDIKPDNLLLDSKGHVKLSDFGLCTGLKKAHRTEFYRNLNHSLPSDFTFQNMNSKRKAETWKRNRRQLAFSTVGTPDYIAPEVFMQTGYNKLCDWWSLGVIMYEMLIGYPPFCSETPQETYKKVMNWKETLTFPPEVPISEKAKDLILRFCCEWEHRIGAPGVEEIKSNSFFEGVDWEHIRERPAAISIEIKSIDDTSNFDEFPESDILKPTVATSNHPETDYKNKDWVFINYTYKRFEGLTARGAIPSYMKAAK
# UniProt P42680: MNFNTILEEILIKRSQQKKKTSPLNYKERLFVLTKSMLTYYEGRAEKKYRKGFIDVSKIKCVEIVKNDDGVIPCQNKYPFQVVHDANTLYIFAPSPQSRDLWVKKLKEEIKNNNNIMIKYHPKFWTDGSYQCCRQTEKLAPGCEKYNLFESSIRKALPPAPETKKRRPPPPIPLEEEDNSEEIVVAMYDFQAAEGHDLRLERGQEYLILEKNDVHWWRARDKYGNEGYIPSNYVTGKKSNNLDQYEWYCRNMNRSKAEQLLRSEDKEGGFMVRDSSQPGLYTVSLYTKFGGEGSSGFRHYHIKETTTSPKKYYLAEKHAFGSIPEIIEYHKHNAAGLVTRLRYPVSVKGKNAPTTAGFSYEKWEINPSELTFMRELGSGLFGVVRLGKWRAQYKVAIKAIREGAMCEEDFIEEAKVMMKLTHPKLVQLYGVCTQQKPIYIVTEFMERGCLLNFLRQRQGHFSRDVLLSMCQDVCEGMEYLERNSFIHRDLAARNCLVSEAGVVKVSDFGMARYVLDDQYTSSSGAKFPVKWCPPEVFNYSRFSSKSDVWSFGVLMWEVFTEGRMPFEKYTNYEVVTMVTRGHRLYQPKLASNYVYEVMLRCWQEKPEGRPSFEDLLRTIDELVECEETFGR
# UniProt Q6PHR2: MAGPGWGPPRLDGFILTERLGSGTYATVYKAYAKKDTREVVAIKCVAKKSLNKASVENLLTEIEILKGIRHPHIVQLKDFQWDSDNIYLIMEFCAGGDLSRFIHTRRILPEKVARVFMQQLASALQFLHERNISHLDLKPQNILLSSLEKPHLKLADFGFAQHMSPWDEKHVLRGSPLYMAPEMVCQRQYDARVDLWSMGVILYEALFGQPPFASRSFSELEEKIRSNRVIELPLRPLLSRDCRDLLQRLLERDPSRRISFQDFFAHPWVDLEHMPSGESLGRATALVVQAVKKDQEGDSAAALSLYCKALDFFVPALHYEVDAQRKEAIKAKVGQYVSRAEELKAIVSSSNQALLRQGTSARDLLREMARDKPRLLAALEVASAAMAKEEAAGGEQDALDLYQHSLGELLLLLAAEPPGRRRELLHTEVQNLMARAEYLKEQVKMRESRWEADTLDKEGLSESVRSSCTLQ
# UniProt P43403: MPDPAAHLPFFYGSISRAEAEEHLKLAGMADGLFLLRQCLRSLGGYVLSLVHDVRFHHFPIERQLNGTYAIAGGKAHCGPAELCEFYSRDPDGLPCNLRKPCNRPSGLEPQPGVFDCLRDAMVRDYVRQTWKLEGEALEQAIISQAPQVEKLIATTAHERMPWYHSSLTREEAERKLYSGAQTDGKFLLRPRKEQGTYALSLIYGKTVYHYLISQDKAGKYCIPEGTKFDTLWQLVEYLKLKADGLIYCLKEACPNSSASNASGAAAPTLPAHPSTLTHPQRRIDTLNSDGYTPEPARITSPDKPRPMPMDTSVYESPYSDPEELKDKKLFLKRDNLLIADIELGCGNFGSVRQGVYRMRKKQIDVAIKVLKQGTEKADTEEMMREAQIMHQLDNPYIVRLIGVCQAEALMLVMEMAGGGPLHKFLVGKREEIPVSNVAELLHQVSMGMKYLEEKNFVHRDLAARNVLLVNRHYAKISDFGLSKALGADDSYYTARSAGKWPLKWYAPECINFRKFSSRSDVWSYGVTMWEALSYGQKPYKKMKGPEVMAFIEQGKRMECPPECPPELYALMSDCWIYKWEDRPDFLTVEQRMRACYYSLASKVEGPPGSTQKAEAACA
# UniProt P31749: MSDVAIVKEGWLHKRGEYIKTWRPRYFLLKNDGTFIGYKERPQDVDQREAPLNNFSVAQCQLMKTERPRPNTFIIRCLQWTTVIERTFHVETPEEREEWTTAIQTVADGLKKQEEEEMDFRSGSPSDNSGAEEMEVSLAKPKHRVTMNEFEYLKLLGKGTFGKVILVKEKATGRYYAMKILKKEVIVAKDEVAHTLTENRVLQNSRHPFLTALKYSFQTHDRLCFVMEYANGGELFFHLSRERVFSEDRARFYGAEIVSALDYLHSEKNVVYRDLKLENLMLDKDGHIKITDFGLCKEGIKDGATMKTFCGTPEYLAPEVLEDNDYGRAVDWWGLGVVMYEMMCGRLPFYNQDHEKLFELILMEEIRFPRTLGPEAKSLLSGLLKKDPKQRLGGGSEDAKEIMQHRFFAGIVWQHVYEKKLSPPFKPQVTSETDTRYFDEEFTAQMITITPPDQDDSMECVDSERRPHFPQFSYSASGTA
# UniProt P10398: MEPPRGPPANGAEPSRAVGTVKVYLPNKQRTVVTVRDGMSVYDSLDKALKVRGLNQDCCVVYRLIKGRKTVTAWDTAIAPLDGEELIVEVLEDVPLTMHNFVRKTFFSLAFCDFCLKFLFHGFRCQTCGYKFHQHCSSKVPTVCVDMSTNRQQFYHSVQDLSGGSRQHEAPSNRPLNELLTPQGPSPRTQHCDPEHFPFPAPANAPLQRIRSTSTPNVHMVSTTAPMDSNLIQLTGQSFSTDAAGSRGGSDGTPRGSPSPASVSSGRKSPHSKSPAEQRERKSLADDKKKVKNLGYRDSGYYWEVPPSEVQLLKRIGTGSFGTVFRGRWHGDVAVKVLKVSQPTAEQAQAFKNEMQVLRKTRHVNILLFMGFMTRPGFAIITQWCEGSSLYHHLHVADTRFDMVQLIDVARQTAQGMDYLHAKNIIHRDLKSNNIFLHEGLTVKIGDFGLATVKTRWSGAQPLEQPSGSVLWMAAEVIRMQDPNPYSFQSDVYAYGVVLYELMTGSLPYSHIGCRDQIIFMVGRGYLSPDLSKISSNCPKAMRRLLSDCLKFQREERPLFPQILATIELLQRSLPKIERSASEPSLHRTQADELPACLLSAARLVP
# UniProt O14965: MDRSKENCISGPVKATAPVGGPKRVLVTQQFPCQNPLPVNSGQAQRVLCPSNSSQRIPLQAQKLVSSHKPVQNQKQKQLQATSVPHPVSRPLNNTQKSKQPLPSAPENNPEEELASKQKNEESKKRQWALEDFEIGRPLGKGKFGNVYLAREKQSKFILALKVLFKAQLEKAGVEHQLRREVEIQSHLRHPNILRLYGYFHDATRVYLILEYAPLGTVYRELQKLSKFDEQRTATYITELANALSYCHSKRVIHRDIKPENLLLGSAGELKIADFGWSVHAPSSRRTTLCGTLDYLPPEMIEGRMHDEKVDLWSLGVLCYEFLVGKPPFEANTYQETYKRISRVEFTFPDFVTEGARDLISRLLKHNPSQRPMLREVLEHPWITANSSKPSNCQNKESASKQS
# UniProt Q9UQB9: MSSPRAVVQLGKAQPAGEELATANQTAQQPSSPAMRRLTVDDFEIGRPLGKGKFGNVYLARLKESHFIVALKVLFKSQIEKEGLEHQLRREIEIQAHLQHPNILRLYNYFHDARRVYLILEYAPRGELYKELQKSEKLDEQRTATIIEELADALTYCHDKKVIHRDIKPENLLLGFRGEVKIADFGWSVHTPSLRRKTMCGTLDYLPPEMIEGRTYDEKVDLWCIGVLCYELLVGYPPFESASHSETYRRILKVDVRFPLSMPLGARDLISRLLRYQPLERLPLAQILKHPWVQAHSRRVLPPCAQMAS
# UniProt P51451: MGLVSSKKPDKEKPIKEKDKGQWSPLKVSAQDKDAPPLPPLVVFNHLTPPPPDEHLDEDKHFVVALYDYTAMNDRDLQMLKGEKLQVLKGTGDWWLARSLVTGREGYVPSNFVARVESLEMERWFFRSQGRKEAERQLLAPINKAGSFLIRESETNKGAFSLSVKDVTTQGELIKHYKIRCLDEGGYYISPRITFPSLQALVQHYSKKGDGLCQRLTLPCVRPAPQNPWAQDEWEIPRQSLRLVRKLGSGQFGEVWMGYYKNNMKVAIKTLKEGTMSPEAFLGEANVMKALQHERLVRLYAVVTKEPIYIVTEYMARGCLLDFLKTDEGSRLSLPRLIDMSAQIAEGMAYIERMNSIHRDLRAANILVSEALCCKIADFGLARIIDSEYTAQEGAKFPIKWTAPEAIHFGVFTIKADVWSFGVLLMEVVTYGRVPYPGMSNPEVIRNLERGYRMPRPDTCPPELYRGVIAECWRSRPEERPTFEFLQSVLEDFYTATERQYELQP
# UniProt P51813: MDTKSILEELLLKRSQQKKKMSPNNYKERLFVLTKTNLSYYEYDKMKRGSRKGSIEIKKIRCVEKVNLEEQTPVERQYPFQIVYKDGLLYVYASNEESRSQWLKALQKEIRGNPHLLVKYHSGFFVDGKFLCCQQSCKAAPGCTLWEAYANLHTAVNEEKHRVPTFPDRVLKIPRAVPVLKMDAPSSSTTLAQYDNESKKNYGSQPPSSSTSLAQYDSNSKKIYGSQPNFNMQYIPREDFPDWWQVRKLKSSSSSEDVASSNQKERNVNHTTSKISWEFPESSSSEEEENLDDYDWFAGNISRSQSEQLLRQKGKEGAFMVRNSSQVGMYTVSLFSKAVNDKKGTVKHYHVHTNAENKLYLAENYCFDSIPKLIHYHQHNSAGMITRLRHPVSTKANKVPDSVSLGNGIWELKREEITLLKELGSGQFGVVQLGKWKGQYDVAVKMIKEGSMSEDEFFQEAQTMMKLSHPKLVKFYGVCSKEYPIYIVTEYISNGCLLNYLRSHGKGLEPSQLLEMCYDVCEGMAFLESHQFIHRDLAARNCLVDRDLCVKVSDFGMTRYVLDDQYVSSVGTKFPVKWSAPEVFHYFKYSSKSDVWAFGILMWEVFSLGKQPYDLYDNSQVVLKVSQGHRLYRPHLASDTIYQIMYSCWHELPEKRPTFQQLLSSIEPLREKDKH
# UniProt P15056, whole entry, looked up: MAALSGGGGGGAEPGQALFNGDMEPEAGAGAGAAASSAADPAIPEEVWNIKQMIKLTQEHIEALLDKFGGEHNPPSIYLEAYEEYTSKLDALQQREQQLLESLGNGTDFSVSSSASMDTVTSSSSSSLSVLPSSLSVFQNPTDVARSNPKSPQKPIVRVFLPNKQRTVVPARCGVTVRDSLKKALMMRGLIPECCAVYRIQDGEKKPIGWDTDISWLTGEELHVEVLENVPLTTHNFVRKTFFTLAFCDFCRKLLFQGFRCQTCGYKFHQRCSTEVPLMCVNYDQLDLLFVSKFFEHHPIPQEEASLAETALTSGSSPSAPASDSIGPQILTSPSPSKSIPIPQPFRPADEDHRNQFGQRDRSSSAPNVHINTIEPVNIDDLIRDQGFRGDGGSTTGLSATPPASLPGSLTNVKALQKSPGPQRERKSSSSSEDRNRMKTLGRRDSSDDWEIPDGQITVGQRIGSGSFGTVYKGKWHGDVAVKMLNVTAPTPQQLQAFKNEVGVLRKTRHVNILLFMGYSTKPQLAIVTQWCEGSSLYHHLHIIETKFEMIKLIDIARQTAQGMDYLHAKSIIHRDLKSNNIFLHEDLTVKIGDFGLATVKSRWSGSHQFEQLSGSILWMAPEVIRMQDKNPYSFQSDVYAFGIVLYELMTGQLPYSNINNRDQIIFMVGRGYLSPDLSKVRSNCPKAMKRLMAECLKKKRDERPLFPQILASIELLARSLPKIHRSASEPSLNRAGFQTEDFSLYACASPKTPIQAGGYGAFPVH
# UniProt Q06187: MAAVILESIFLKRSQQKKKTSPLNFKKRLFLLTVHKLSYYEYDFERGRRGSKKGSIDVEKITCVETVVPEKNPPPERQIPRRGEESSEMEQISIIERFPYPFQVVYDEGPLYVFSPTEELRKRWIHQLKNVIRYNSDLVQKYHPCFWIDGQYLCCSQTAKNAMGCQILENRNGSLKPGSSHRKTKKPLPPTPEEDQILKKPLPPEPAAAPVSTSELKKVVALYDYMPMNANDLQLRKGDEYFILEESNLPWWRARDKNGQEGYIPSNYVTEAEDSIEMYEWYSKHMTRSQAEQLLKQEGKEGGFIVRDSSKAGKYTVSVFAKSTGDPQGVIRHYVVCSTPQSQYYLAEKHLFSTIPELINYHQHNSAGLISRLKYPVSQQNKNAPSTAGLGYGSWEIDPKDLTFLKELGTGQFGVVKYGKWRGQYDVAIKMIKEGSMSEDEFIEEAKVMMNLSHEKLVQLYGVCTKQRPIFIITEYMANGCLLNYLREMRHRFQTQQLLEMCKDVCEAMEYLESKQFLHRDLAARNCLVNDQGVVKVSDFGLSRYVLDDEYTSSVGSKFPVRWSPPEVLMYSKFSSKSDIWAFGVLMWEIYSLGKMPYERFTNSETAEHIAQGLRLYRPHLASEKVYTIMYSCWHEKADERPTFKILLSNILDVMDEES
# The other results are listed elsewhere or left out. The calls rarely recur for the same compound in another form.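 Kinases, fused to nanoluciferase, were expressed in K562 cells; luminescence was measured every 4 h from 2 to 18 h as percent of control (DMSO = 100%, positive control = 0%). A time point is decreased if signal falls significantly (2 sigma). Hits were called by the authors by a rule that is not shown; the count of time points alone does not decide it.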
# Legend:
# Conditions in all cases: K562; 2-18 h
# STK38 = STK38 (UniProt Q15208); assay: kinase-Nluc reporter destabilization hit call (1 = scored as downregulated) (binary); higher = compound decreases kinase abundance
# SYK = SYK (UniProt P43405); assay: as above
# TEC = TEC (UniProt P42680); assay: as above
# TYK2 = TYK2 (UniProt P29597); assay: as above
# ULK3 = ULK3 (UniProt Q6PHR2); assay: as above
# YES1 = YES1 (UniProt P07947); assay: as above
# ZAP70 = ZAP70 (UniProt P43403); assay: as above
# ABL1 = ABL1 (UniProt P00519); assay: number of time points (of 5) at which kinase-Nluc abundance scored as decreased, DMSO-normalised (count); higher = more persistent destabilization
# AKT1 = AKT1 (UniProt P31749); assay: as above
# ALK = ALK (UniProt Q9UM73); assay: as above
# ARAF = ARAF (UniProt P10398); assay: as above
# AURKA = AURKA (UniProt O14965); assay: as above
# AURKB = AURKB (UniProt Q96GD4); assay: as above
# AURKC = AURKC (UniProt Q9UQB9); assay: as above
# BLK = BLK (UniProt P51451); assay: as above
# BMX = BMX (UniProt P51813); assay: as above
# BRAF = BRAF (UniProt P15056); assay: as above
# BRAF_V600E = assay: as above
# BTK = BTK (UniProt Q06187); assay: as above
# ZAK = ZAK (UniProt Q9NYL2); assay: kinase-Nluc reporter destabilization hit call (1 = scored as downregulated) (binary); higher = compound decreases kinase abundance
Structure (SMILES),kinase-Nluc reporter destabilization hit call (STK38),kinase-Nluc reporter destabilization hit call (SYK),kinase-Nluc reporter destabilization hit call (TEC),kinase-Nluc reporter destabilization hit call (TYK2),kinase-Nluc reporter destabilization hit call (ULK3),kinase-Nluc reporter destabilization hit call (YES1),kinase-Nluc reporter destabilization hit call (ZAP70),number of time points (ABL1),number of time points (AKT1),number of time points (ALK),number of time points (ARAF),number of time points (AURKA),number of time points (AURKB),number of time points (AURKC),number of time points (BLK),number of time points (BMX),number of time points (BRAF),number of time points (BRAF_V600E),number of time points (BTK),kinase-Nluc reporter destabilization hit call (ZAK)
CN(c1ncccc1CNc1nc(Nc2ccc3c(c2)CC(=O)N3)ncc1C(F)(F)F)S(C)(=O)=O (2.5 µM),inactive: 0,inactive: 0,inactive: 0,inactive: 0,inactive: 0,inactive: 0,inactive: 0,0,0,2,0,1,0,0,1,0,0,0,0,
CN(C)CCOc1ccc(-c2nc(-c3ccncc3)c(-c3ccc4c(c3)CC/C4=N\O)[nH]2)cc1 (10 µM),inactive: 0,inactive: 0,inactive: 0,inactive: 0,inactive: 0,inactive: 0,inactive: 0,0,0,0,0,0,0,0,0,0,,0,0,inactive: 0
Cc1cc(C)c(/C=C2\C(=O)Nc3ccccc32)[nH]1 [Semaxinib] (10 µM),inactive: 0,,inactive: 0,inactive: 0,inactive: 0,inactive: 0,inactive: 0,0,0,0,0,0,4,0,1,0,0,,,
O=C1c2ccccc2-c2n[nH]c3cccc1c23 (10 µM),inactive: 0,,inactive: 0,inactive: 0,inactive: 0,inactive: 0,inactive: 0,0,0,0,0,0,0,0,0,0,0,0,0,inactive: 0
O=c1c(-c2ccc(O)cc2)coc2cc(O)cc(O)c12 [Genistein] (10 µM),inactive: 0,,inactive: 0,inactive: 0,inactive: 0,inactive: 0,inactive: 0,0,0,0,0,0,0,0,0,0,0,0,0,inactive: 0
Cc1c[nH]c2nccc(Oc3c(F)cc(Nc4cc(Cl)nc(N)n4)cc3F)c12 (10 µM),inactive: 0,inactive: 0,inactive: 0,inactive: 0,inactive: 0,inactive: 0,inactive: 0,2,0,0,0,0,0,0,0,0,0,0,0,
Cc1ccc(NC(=O)c2cccc(N(C)C)c2)cc1NC(=O)c1ccc(O)cc1 (10 µM),inactive: 0,inactive: 0,inactive: 0,inactive: 0,inactive: 0,inactive: 0,inactive: 0,0,0,0,0,0,0,0,0,0,,0,0,inactive: 0
COc1c(Cl)cc2c([nH]c3cnccc32)c1NC(=O)c1cccnc1C (10 µM),inactive: 0,inactive: 0,inactive: 0,inactive: 0,inactive: 0,inactive: 0,inactive: 0,0,0,0,0,0,0,0,0,0,,0,0,inactive: 0
CNC(=O)c1cc(Oc2ccc(NC(=O)Nc3cc(C(C)(C)C)nn3-c3ccc4ncccc4c3)c(F)c2)ccn1 [Rebastinib] (2.5 µM),inactive: 0,inactive: 0,inactive: 0,inactive: 0,inactive: 0,inactive: 0,inactive: 0,0,0,3,0,3,3,1,3,4,,3,0,inactive: 0
COc1ccc(NC(=O)N2CCN(c3nc(N)nc4c3cnn4C)[C@@H](C)C2)c(C)c1 (10 µM),inactive: 0,inactive: 0,inactive: 0,inactive: 0,inactive: 0,inactive: 0,inactive: 0,0,0,0,0,0,0,0,0,0,0,,0,inactive: 0
